Reference: article PMC4493104
No constants are given. Whether binding was seen depends on the method and setting. In cells and extracts the contact can be indirect. For some assays here: Binding can be weak; no strength is given. For some assays here: Where a sequence is shown, tags or fusion partners need not be part of it. Values belong to the molecule of their own block, whether it stands above or below them.

Sequences of proteins named here, by UniProt entry; tags and fusion partners are left off. A change or cut given only in a name is not applied to a line headed by its entry.
UniProt O94623: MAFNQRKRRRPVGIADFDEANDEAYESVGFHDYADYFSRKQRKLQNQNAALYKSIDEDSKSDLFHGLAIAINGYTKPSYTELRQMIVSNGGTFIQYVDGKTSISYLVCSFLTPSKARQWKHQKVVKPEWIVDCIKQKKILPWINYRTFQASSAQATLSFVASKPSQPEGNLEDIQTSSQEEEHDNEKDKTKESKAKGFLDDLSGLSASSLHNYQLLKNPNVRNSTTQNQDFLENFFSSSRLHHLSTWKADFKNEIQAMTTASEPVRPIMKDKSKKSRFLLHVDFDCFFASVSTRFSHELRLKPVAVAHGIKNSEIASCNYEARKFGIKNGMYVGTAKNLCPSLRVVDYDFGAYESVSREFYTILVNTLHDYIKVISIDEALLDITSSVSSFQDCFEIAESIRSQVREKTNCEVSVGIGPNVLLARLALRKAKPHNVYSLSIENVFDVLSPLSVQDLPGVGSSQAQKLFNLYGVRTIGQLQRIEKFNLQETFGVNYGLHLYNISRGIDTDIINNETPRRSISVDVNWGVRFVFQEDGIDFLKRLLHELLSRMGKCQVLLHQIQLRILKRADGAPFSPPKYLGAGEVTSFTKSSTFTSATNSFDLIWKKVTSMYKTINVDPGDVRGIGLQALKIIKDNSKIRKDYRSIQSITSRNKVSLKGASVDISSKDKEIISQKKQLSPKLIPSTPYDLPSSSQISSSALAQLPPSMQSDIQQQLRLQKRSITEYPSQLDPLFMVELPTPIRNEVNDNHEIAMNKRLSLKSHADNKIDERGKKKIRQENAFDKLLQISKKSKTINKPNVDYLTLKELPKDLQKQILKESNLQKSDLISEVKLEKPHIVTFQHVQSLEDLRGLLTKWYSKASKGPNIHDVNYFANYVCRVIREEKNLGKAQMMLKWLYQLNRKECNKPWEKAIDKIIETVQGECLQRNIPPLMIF

Tests used:
[1] = target: T1, Pop1 (V5-tagged, pop1^V5) (fission yeast) (UniProt P87060); assay: co-IP; whole cell extracts (LiNi method, EBL buffer) of fission yeast strains; immunoprecipitation of V5-tagged Pop1 or Pop2 with rabbit anti-V5 on anti-rabbit IgG magnetic beads, Rev1 forms detected by anti-flag blot; untagged strain or rabbit normal IgG as negative control; asynchronous and cdc25-synchronized cultures
T1 sequence: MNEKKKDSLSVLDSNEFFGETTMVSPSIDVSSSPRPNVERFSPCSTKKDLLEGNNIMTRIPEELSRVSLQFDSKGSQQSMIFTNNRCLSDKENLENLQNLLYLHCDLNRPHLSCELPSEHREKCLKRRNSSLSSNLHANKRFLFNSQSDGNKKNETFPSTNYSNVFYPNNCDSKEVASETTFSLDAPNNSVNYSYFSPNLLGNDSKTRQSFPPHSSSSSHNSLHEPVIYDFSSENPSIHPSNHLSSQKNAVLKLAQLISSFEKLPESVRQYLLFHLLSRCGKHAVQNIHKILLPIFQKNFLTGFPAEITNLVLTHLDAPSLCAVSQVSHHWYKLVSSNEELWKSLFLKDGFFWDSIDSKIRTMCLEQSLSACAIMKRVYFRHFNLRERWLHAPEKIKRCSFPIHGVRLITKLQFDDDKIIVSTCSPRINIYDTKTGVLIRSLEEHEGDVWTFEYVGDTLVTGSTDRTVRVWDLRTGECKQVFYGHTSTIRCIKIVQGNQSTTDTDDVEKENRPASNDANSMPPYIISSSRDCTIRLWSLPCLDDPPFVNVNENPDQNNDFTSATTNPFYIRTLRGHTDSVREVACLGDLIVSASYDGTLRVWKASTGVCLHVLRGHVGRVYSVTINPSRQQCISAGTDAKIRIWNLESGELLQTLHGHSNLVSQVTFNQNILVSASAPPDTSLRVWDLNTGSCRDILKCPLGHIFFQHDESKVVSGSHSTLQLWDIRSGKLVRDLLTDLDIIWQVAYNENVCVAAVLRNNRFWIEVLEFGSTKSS

[2] = target: Rev1dK internal deletion mutant (Δ761–797), flag-tagged (rev1dK^flag) (fission yeast) (UniProt O94623); assay: co-IP; immunoprecipitation assay from fission yeast extracts; bait, tags and antibodies shown only in S2 Fig and S5 Fig

binding [1]: no binding
Molecule: Rev1dK internal deletion mutant (Δ761–797), flag-tagged (rev1dK^flag) (from UniProt O94623)

binding [2]: binds
B1: Cdc1 (protein, UniProt P87324 1-462)
chain: MVEVRHSIPCEETKRLELSLSQQTYSQQYASIYFARLTALRPRITEAASKKWPDKQRLERVLDVKSDEDCWVVATAYMTTALKPNVMNDVTQLHTIVTTTEESPYVSPEDAASGDIEYALEDDYGRIDCSGSFLYDAGVVTGVVLAVLGHEDEQGRFVVVDVCFPGIFSHSIPMTTDESQAQPEYIAAVSGLGLSNDGIEGIQVHQLVDFLRGTLPHVSSFSPSSIKRLIILGNCLAPSIEIADSASASVPIGKKKVKRYGYDTSAYNPNPTFQLDNFLDQVCSSIDVTLMPGPYDYSSTILPQQPLHPALLTKSKVWLGSSLQTVTNPTWLSLGNHFVLATSGQNINDLRKYHPKKSSLQCMENTLLWNHITPTSPDTLWCYPFTDKDTFVMEEMPDLYLCGNQPKFGCKTVINEGNRIQLVSVPEFRKTGVLVLINMHTLNVEIIQFRPMSVKAETPITS
